Test results published in patent US6998239.
These are yes or no findings as the source states them, for the method shown. Some entries that bind do so weakly or less than the wild type.

The chains behind the UniProt entries cited, without tags or fusion partners. Where a name states a change or a piece, a line headed by the entry shows the natural chain unless it says otherwise. Residues count along the entry.
UniProt Q9NPB9: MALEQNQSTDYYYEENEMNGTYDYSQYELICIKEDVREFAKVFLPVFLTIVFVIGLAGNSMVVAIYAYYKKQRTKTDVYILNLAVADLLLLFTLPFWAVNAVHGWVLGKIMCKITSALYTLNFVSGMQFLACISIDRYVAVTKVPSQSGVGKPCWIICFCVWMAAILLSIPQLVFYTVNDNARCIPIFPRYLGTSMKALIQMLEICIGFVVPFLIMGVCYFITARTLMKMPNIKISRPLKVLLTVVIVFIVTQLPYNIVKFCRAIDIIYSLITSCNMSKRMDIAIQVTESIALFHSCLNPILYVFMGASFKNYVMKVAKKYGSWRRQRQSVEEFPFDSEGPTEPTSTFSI
UniProt P84444, residues 24-133: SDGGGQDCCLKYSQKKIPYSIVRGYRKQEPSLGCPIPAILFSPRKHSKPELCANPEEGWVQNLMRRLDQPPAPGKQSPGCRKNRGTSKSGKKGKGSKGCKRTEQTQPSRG

Columns and labels:
[1] = molecular target: human CCX CKR with N-terminal Flag epitope, stably expressed on HEK293 cells (human) (UniProt Q9NPB9); test: displacement of 125I-ELC or 125I-TECK from CCX CKR transfectants, 200 nM cold chemokine
[2] = molecular target: human CCX CKR with N-terminal Flag epitope, stably expressed on HEK293 cells (human) (UniProt Q9NPB9); test: radioligand binding competition on CCX CKR stable transfectants

binding [1]: binds
binding [2]: binds
Substance: murine SLC (from UniProt P84444 24-133) (ligand)
